Data taken from PubChem BioAssay AID1347075 (National Center for Advancing Translational Sciences (NCATS), 2019).
Values joined by “and” are separate entries in the source; they are usually repeats but may differ in a detail not shown here. Identical values can stand only once. Out of some 400,000 compounds screened, about 5,500 (1.4%) were called active. The shares of active, inactive and inconclusive entries below differ from those in the screen. Calls come from the whole dose curve; as a rule, active = well fitted cell-killing curve with a large enough effect; inconclusive = small, poorly fitted or top-dose-only effect, or effect the other way; inactive = flat fitted curve, though single readings scatter. Potencies beside an inconclusive call are fits to weak or partial responses and may not hold up.

Test: qHTS assay for MDR1-selective chemotherapeutics: Primary screen using the parental adenocarcinoma cell KB-3-1; note: nearly all actives have a fitted effect of over 60% in size
Details: KB-3-1 viability, CellTiter-Glo ATP luminescence, 72 h; activity change, negative = cytotoxic: at 46.1 µM (top of the series)
Outline: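 Viability of parental KB-3-1 cells, measured by CellTiter-Glo luminescence, followed a 72 h incubation at 37 °C with pinned compounds in phenol-red-free DMEM containing 10% FBS.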
% is set by controls: 0 for no effect and ±100 for the full control effect; potency is the fitted concentration of half-maximal effect.

Compound	activity change, negative = cytotoxic	Potency
COc1ccc(C(=O)Cn2c(NCCCl)nc3ccccc32)cc1	inactive: -4.85%	–
COC1C(C)OC(OC2CC(C)(O)Cc3cc4c(c(O)c32)C(=O)c2c(O)cc3c(c2C4=O)OC2OC3(C)C(O)C(N(C)C)C2O)C(OC)C1(C)OC (stereo not drawn)	–	active: 0.461 µM
COc1cc2c(c(OC)c1OC)-c1ccc(O)c(=O)cc1C(NC(C)=O)CC2 (stereo not drawn)	–	active: 0.0082 µM
Cc1cccc(CN2C(=O)CN=C(c3ccccc3Cl)c3cc(Cl)ccc32)c1	inactive: 3.1%	–
S=C(NCCc1ccccc1)N1Cc2ccccc2-n2nncc2C1	inactive: 0%	–
CCOC(=O)[C@]12Cc3cc(Cl)ccc3[C@H]1N(C)C(=O)c1cc(OC)ccc12	–	active: 2.59 µM
C=C(C)[C@@H]1C2C(=O)O[C@H]1[C@H]1OC(=O)[C@@]34OC3C[C@]2(O)[C@@]14C (stereo partly drawn)	inactive: 0%	–
O=c1[nH]c2ccccc2n1C1CCN(C(c2cccs2)c2nnnn2-c2ccc3c(c2)OCCO3)CC1 (stereo not drawn)	–	inconclusive: 29.1 µM [cytotoxic, single point]
C[C@]12CC[C@H]3C(CCC4(O)CC(O)CC[C@]34C=O)C1=CC[C@H]2c1ccc(=O)oc1 (stereo partly drawn)	–	active: 23.1 µM
O=C(NCCN1CCOCC1)c1ccc(Cl)nc1Cl	inactive: 3.06%	–
CCOc1ccc2nc(N3CCC(C(=O)N4CCC5(CC4)OCCO5)CC3)sc2c1	–	inconclusive: 14.6 µM [cytotoxic, partial curve]
CCCCCCC(Cl)(Cn1ccnc1)c1ccccc1 (stereo not drawn)	–	inconclusive: 3.26 µM [cytotoxic, full curve]
CCCCCN1C(=O)c2ccccc2[C@@]2(C(=O)OCC)Cc3cc(OC)ccc3[C@@H]12	–	active: 5.8 µM
COc1ccc(CNCCc2c(C)[nH]c3ccc(OC(F)(F)F)cc23)c(OC)c1	–	inconclusive: 18.4 µM [cytotoxic, partial curve, poor fit]
COc1ccc(C2NCc3ccc4c(c3-n3cccc32)OCO4)cc1O (stereo not drawn)	–	active: 1.3 µM
C[C@@H]1C[C@@H]([C@H](O)CC2CC(=O)NC(=O)C2)C(=O)[C@@H](C)C1	–	active: 9.2 µM
COC(=O)[C@@H]1N=C(c2ccc(OC)cc2)O[C@]12C(=O)N(C)c1ccc(Cl)cc12	inactive: -5.81%	–
COc1ccc(-[n+]2c(-c3ccccc3)cc(-c3ccccc3)cc2-c2ccccc2)cc1	–	active: 7.31 µM
CC(C)(C)c1cc(C=C(C#N)C#N)cc(C(C)(C)C)c1O	–	active: 1.3 µM
COc1cc(C2c3cc4c(c(O)c3CC3COC(=O)C32)OCO4)cc(OC)c1O (stereo not drawn)	–	active: 0.0164 µM
CCn1nc(-c2ccccc2)nc2c(=O)n(C)c(=O)nc1-2	–	active: 5.17 µM
CCOC(=O)C1(CCc2ccccc2)CCN(Cc2cccc3cnccc23)CC1	–	inconclusive: 13 µM [cytotoxic, partial curve, poor fit]

Compound	activity change, negative = cytotoxic	Potency
O=C(CN1CCOCC1)Nc1ccc(Br)cc1C(=O)c1ccccc1	inactive: -1.75%	–
CC(=O)c1ccc(NC(=O)c2sc3nc4c(cc3c2N)N2CCC4CC2)cc1	–	inconclusive: 29.1 µM [cytotoxic, single point]
COc1ccc2c(c1)C(NC(C)=O)CCc1cc(OC)c(OC)c(OC)c1-2 (stereo not drawn)	–	active: 0.146 µM
CC(=O)O[C@@]12CO[C@@H]1C[C@H](O)[C@@]1(C)C(=O)[C@H](O)C3=C(C)[C@@H](OC(=O)[C@H](O)[C@@H](NC(=O)c4ccccc4)c4ccccc4)C[C@@](O)([C@@H](OC(=O)c4ccccc4)C12)C3(C)C (stereo partly drawn)	–	active: 0.0073 µM
Cc1ccccc1NP(=O)(Oc1ccccc1F)Oc1ccccc1F	inactive: -0.959%	–
CCN(C(=O)COC(=O)c1cc(C)n(C2CC2)c1C)c1ccccc1	inactive: 1.35%	–
C[N+]12CCC(CC1)C(=C(c1ccccc1)c1ccccc1)C2	–	inconclusive: 0.82 µM [cytotoxic, full curve, poor fit]
COC(=O)C1=C(c2ccc(Cl)c(C(F)(F)F)c2)C[C@@H]2CC[C@H]1N2C(=O)NCCOc1ccccc1Cl	–	inconclusive: 23.1 µM [cytotoxic, partial curve, poor fit]
Cc1ccc(S(=O)(=O)N2Cc3cc(-c4ccccc4)ccc3-n3nncc3C2)cc1	inactive: 0.0564%	–
COc1cc(C2c3cc4c(c(O)c3CC3COC(=O)C32)OCO4)cc(OC)c1OC (stereo not drawn)	–	inconclusive: 9.2 nM [cytotoxic, full curve, poor fit] and active: 8.2 nM
COC(=O)C1=C(c2ccc(-c3ccccc3)c(F)c2)C[C@@H]2CC[C@H]1N2C(=O)NCCOc1ccc(OC)cc1	–	inconclusive: 23.1 µM [cytotoxic, single point]
Cc1cccc(-n2c(/C=C/c3cccc4ccccc34)nc3ccccc3c2=O)c1	inactive: -7.95%	–
CN1CCN2c3ccc(N)cc3CC3(C(=O)NC(=O)NC3=O)C2C1 (stereo not drawn)	–	inconclusive: 3.26 µM [rising, partial curve, poor fit]
CN1C(=O)c2ccccc2Sc2ccc(C(=O)N3CCC4(CC3)OCCO4)cc21	–	inconclusive: 29.1 µM [cytotoxic, single point]
NC(N)=Nc1ccc2[nH]c3c(c2c1)C[C@@]1(O)[C@H]2Cc4ccc(O)c5c4[C@@]1(CCN2CC1CC1)[C@H]3O5	–	inconclusive: 29.1 µM [cytotoxic, single point]
COC(=O)C1=C(c2ccc(F)cc2OCc2ccccc2)C[C@@H]2CC[C@H]1N2C(=O)NCCCc1ccccc1	inactive: -11.7%	–
Cc1ccc(CN2CCSc3ccc(C(=O)N4CCC5(CC4)OCCO5)cc32)cc1	–	inconclusive: 18.4 µM [cytotoxic, single point]
C/C(=N\Nc1ccccc1)c1c(O)[nH]c(=O)[nH]c1=O	–	inconclusive: 20.6 µM [cytotoxic, single point]
COC(=O)C(C)Oc1cc(C)cc2oc(=O)c3c(c12)CCC3 (stereo not drawn)	–	inconclusive: 29.1 µM [cytotoxic, single point]
O=C1Nc2ccccc2/C1=C/c1cnc[nH]1	inactive: 4.05%	–
CC(C)(O)/C=C/C(=O)[C@](C)(O)C1[C@H](O)C[C@@]2(C)C3CC=C4C(C[C@H](O)[C@@H](O)C4(C)C)[C@]3(C)C(=O)C[C@]12C (stereo partly drawn)	–	inconclusive: 0.58 µM [cytotoxic, full curve, poor fit]
